This is a selection; strong and weak results do not stand in their true shares. The data scatter; read single values as rough.
What follows are targets tested with COC(=O)/C=C/c1ccccc1 [methyl cinnamate] (assay: log2 ratio of iodoacetamide-alkyne labeling of the cysteine site, DMSO over compound (competition); higher = stronger covalent engagement of the cysteine by the compound, active = 1 or more). Conditions: 500 µM; treatment time 1 h; system: HEK293T cell lysate.
Method in brief: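 Reporter intensities give each cysteine's log2 competition ratio as the mean of control channels over the mean of compound channels. The samples were HEK293T lysate (2 mg/mL) given vehicle or electrophile (500 µM, 1 h, ambient temperature), then iodoacetamide alkyne (1 h), followed by click coupling to sCIP-TMT reagents, pooling, trypsin digestion overnight at 37 °C, streptavidin enrichment, acid elution, Orbitrap Eclipse LC-MS/MS with FAIMS and FragPipe quantification. Duplicate channels and three replicates were run, and cysteines quantified in only one replicate were discarded.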

The chains behind the UniProt entries cited, without tags or fusion partners. Where a name states a change or a piece, a line headed by the entry shows the natural chain unless it says otherwise.
UniProt Q9ULG1, whole entry, looked up: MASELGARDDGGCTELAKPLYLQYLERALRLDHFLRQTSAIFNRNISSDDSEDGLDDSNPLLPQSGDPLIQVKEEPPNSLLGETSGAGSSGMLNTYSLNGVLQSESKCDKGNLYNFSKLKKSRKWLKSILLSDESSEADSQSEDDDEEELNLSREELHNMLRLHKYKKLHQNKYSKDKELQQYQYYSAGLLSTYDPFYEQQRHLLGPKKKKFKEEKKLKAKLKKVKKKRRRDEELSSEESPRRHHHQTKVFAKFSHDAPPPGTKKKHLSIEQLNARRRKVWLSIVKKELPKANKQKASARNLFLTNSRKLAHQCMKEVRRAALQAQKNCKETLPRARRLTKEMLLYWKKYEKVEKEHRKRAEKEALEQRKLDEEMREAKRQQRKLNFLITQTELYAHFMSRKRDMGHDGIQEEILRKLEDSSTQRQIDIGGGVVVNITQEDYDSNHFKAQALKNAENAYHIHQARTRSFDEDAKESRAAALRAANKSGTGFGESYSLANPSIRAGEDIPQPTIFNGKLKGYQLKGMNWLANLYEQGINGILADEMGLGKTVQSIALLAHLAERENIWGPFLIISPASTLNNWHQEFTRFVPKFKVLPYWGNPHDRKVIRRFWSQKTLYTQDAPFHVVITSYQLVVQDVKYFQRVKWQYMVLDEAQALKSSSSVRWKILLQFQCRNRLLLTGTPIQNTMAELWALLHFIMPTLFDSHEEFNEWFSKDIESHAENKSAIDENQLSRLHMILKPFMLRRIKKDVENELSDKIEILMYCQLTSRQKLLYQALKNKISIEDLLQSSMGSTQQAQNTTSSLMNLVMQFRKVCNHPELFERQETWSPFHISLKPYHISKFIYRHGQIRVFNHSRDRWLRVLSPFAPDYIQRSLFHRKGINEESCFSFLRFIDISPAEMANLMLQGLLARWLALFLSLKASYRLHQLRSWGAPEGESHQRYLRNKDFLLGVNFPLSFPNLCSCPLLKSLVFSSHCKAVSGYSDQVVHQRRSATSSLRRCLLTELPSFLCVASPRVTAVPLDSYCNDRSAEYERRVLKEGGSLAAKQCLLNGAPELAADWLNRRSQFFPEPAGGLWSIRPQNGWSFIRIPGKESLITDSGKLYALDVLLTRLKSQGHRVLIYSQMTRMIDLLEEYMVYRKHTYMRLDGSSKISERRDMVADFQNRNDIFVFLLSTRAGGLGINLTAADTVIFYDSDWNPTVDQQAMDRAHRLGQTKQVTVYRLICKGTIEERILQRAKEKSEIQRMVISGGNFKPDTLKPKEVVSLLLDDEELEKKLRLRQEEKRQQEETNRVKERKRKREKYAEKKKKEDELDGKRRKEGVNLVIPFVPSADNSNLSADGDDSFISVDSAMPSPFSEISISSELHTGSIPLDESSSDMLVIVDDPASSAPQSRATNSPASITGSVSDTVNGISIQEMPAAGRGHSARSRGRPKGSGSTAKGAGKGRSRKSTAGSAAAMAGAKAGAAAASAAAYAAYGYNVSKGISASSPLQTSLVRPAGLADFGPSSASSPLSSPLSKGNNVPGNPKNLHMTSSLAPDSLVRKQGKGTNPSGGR
UniProt Q9Y265, whole entry, looked up: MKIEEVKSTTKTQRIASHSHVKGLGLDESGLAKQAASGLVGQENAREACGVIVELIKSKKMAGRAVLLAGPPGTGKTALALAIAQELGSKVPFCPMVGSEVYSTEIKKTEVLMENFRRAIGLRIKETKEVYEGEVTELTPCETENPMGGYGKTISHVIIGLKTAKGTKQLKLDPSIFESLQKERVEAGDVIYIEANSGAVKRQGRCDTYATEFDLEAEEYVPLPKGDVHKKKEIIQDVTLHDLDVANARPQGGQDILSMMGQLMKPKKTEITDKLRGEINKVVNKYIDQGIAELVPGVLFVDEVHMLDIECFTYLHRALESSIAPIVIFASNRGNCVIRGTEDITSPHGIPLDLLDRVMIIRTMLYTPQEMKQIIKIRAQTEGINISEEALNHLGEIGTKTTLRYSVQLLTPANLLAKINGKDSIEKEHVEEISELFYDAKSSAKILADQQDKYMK
UniProt Q9UHW5, whole entry, looked up: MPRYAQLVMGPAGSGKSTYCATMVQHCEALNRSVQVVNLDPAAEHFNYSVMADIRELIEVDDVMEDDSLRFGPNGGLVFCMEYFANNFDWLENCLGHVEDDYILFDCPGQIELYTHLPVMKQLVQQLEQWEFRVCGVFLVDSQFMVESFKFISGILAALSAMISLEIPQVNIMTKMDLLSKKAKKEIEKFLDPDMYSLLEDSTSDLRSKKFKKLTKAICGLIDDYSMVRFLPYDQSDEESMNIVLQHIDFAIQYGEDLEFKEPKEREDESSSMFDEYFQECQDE
UniProt Q9UNE7: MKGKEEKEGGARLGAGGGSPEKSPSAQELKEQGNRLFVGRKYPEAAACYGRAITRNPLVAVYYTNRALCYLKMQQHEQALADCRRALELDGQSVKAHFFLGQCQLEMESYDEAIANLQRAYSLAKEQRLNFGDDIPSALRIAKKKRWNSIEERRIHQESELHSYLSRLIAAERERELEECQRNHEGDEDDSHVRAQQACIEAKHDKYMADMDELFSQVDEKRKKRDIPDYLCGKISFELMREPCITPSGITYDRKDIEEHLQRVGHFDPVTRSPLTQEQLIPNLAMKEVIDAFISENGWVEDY
UniProt Q9UK61: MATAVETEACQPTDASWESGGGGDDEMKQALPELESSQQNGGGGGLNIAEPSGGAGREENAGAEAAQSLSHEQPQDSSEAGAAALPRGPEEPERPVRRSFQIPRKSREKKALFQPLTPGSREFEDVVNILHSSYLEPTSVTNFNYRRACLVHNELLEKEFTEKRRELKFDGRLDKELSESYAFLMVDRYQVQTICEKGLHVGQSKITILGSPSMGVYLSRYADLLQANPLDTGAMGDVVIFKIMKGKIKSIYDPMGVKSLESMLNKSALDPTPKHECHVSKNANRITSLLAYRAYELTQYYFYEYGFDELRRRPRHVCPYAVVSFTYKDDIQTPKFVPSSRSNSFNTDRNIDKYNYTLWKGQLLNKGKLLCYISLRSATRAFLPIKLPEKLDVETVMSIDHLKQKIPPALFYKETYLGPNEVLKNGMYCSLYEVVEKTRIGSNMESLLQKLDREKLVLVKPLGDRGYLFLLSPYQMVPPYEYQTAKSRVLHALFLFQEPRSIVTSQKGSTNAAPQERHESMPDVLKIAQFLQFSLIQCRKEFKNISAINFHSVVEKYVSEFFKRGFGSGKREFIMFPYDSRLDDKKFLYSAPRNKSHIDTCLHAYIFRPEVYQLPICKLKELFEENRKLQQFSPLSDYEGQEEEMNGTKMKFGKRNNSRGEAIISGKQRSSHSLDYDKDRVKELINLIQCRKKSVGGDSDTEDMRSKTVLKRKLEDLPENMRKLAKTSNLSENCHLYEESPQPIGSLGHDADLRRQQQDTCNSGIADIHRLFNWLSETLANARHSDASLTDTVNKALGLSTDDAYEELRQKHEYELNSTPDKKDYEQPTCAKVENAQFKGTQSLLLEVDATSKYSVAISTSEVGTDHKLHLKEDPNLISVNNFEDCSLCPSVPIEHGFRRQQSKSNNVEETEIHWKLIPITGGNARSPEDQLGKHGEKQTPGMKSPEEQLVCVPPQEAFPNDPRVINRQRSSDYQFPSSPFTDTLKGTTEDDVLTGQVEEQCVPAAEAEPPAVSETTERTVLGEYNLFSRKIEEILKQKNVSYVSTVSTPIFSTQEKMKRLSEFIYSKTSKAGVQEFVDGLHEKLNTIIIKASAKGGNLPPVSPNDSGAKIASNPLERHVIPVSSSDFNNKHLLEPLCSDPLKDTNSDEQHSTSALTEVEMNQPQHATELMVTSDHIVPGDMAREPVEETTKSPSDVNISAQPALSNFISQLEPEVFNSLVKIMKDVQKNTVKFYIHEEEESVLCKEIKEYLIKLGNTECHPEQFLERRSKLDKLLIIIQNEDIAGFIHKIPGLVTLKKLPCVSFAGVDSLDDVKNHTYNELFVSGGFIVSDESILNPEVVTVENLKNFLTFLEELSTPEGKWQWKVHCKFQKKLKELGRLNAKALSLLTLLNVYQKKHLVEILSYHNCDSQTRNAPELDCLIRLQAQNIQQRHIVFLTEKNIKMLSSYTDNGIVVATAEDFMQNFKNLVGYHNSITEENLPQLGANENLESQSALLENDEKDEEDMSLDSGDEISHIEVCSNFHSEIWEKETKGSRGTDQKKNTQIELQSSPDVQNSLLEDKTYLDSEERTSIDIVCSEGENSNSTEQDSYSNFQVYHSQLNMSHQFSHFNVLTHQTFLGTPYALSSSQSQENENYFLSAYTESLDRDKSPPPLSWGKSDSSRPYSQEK
UniProt Q9UMS4: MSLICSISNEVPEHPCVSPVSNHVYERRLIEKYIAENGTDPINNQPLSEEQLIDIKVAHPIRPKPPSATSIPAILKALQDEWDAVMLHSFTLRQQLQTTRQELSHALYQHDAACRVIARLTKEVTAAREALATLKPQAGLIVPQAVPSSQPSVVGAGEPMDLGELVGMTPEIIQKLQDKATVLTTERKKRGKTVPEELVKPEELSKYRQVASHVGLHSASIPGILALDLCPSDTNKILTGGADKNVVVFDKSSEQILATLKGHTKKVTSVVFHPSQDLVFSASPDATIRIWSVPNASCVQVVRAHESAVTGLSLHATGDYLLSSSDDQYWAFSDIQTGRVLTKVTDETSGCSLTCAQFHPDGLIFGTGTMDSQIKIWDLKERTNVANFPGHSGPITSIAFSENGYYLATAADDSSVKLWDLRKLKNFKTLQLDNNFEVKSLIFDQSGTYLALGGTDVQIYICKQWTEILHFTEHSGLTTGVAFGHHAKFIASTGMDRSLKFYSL
UniProt Q9UL03, whole entry, looked up: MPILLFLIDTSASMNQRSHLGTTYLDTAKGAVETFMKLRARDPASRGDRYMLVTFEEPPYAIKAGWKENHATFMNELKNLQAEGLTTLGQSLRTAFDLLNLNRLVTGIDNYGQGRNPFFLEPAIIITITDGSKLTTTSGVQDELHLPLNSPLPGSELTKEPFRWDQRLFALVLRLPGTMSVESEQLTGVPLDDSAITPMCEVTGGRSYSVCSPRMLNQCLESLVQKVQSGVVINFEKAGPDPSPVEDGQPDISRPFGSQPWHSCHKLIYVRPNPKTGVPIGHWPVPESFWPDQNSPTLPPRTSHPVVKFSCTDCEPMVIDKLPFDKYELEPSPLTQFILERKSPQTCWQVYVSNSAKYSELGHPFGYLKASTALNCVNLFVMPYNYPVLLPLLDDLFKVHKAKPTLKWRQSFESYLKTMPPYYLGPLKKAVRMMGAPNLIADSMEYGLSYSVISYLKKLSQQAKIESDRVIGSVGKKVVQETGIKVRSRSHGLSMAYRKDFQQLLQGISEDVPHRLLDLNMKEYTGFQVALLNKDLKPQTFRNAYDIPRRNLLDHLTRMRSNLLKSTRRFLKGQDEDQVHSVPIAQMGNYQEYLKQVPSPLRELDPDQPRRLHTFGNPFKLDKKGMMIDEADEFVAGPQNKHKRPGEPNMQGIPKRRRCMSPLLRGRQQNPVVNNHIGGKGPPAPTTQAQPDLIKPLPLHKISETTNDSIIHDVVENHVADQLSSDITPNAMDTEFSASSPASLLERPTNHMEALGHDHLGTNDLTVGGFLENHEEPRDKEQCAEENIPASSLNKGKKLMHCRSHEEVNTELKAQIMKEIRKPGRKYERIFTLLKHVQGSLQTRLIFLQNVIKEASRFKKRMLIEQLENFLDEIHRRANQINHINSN
UniProt Q9Y221: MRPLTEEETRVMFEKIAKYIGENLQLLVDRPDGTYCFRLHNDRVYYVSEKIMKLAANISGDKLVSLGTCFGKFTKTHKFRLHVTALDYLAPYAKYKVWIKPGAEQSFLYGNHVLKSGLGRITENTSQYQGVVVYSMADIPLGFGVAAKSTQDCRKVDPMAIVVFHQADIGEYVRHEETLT
UniProt Q9Y295: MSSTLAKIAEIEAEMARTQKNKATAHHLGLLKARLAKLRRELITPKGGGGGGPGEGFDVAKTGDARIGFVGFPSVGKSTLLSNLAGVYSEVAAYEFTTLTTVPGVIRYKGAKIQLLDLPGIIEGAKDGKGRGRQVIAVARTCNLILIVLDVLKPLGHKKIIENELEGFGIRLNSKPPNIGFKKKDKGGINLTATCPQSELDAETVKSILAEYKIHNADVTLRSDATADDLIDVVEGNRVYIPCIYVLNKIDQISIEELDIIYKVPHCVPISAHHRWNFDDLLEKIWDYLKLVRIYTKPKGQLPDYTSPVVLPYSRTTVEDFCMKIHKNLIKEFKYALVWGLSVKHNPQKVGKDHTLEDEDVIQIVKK
UniProt Q9Y383: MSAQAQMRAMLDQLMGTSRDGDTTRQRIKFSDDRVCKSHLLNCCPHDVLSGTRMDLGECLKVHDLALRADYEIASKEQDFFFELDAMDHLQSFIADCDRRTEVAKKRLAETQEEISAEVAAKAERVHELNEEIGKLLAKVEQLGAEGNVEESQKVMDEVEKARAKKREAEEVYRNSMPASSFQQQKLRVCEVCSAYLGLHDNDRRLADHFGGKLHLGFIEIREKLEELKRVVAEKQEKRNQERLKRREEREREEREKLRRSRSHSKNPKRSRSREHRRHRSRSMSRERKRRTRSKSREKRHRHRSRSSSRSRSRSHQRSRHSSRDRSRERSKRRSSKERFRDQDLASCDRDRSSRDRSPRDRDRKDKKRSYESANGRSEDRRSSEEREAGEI

log2 ratio of iodoacetamide-alkyne labeling, inactive:
STRAP C305 (UniProt Q9Y3F4) 0.542
NOP58 C139 (UniProt Q9Y2X3) 0.151
EXOC6B C32 (UniProt Q9Y2D4) -0.044
TRMT6 C492 (UniProt Q9UJA5) 0.39
INO80 C1049 (UniProt Q9ULG1) 0.00564
RUVBL1 C94 (UniProt Q9Y265) -0.042
GPN3 C281 (UniProt Q9UHW5) 0.185
AK6 C53 (UniProt Q9Y3D8) 0.115
STUB1 C103 (UniProt Q9UNE7) -0.0172
GPATCH8 C569 (UniProt Q9UKJ3) 0.33
UniProt Q9UK61_C734 -0.0272
PRPF19 C298 (UniProt Q9UMS4) 0.0709
USP24 C14 (UniProt Q9UPU5) 0.211
UniProt Q9UI30_C33 0.0135
INTS6 C219 (UniProt Q9UL03) 0.0184
LIMCH1 C669 (UniProt Q9UPQ0) 0.0959
NIP7 C36 (UniProt Q9Y221) -0.019
KIDINS220 C867 (UniProt Q9ULH0) 0.158
NISCH C436 (UniProt Q9Y2I1) -0.14
DRG1 C195 (UniProt Q9Y295) 0.163
LUC7L2 C59 (UniProt Q9Y383) 0.394
UniProt Q9UPN4_C218 0.0397

At a glance, some entries already given:
log2 ratio of iodoacetamide-alkyne labeling, inactive:
INTS6 C219 (UniProt Q9UL03) 0.0184
LIMCH1 C669 (UniProt Q9UPQ0) 0.0959

Source: the supplement of paper PMC11006884
